Measurements from the supplement of paper PMC6078165.
The reference is the same well before dosing, and untreated signal decays as well.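 Labels refer to human fibroblasts, largely primary: uterine (C12385, HUF), lung (H6013), bone (Hs27A), adrenal (HADF), skin (WS1), plus mammary HMF and breast cancer-associated Hs343T. Cancer lines are basal-like or mesenchymal-like triple-negative breast cancer. The paper counts as hits responses shifting over 3x the replicate standard deviation. The tissue of the other fibroblasts is not given here.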

Test system: Hs578T
Assay: relative JC-1 red fluorescence (viability) vs pre-drug, coculture with fibroblast (fraction); higher = more viable cancer cells
Method: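 JC-1 labelled TNBC cells cocultured 1:1 (1,500 cells each) with CellTrace Violet stained primary or stromal fibroblasts in 384-well plates in FluoroBrite medium, treated with one of 42 anticancer drugs at 0.1, 1, 10 or 100 uM. JC-1 red fluorescence (mitochondrial integrity in cancer cells only) was read by plate reader every 8 h for 72 h. Values are normalised to each well's pre-drug value. The stock of one drug was tenfold lower, so its dose labels may be too high.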

CN(Cc1cnc2nc(N)nc(N)c2n1)c1ccc(C(=O)N[C@@H](CCC(=O)O)C(=O)O)cc1 [Methotrexate]
relative JC-1 red fluorescence
Conditions | 8 h | 16 h | 24 h | 32 h | 40 h | 48 h | 56 h | 64 h | 72 h
10 µM | 0.871 | 0.7339 | 0.692 | 0.658 | 0.603 | 0.58 | 0.575 | 0.558 | 0.568
100 µM | 0.886 | 0.79 | 0.739 | 0.69 | 0.626 | 0.58242 | 0.569 | 0.547 | 0.54

relative JC-1 red fluorescence
Conditions | 8 h | 16 h | 24 h | 32 h | 40 h | 48 h | 56 h | 64 h | 72 h
10 µM, coculture fibroblast: C12385 | 0.861 | 0.733 | 0.685 | 0.586 | 0.527 | 0.493 | 0.464 | 0.453 | 0.44
10 µM, coculture fibroblast: H6013 | 0.9088 | 0.814 | 0.772 | 0.75 | 0.717 | 0.707 | 0.684 | 0.687 | 0.671
10 µM, coculture fibroblast: H6019 | 0.78 | 0.6797 | 0.669 | 0.568 | 0.525 | 0.502 | 0.479 | 0.464 | 0.454
10 µM, coculture fibroblast: H6076 | 0.922 | 0.8001 | 0.762 | 0.744 | 0.699 | 0.704 | 0.686 | 0.697 | 0.705
10 µM, coculture fibroblast: H6231 | 0.931 | 0.847 | 0.74 | 0.698 | 0.613 | 0.577 | 0.515 | 0.4898 | 0.4661
10 µM, coculture fibroblast: HADF | 0.891 | 0.818 | 0.774 | 0.743 | 0.724 | 0.694 | 0.675 | 0.669 | 0.646
10 µM, coculture fibroblast: HCFa | 0.866 | 0.748 | 0.69524 | 0.6556 | 0.595 | 0.579 | 0.54 | 0.537 | 0.51
10 µM, coculture fibroblast: HCPF | 0.927 | 0.8189 | 0.759 | 0.722 | 0.658 | 0.624 | 0.607 | 0.574 | 0.552
10 µM, coculture fibroblast: HHSteC | 0.896 | 0.7875 | 0.725 | 0.673 | 0.609 | 0.583 | 0.552 | 0.536 | 0.5
10 µM, coculture fibroblast: HMF | 0.889 | 0.775 | 0.722 | 0.697 | 0.645 | 0.616 | 0.591 | 0.573 | 0.563
10 µM, coculture fibroblast: HPFa | 0.941 | 0.849 | 0.804 | 0.767 | 0.746 | 0.722 | 0.693 | 0.685 | 0.651
10 µM, coculture fibroblast: HUF | 0.85221 | 0.724 | 0.707 | 0.5967 | 0.536 | 0.4951 | 0.462 | 0.454 | 0.446
10 µM, coculture fibroblast: Hs27A | 0.9072 | 0.8333 | 0.745 | 0.681 | 0.622 | 0.6 | 0.563 | 0.555 | 0.517
10 µM, coculture fibroblast: Hs343T | 0.918 | 0.77 | 0.71941 | 0.6917 | 0.621 | 0.594 | 0.552 | 0.527 | 0.521
10 µM, coculture fibroblast: WS1 | 0.827 | 0.703 | 0.65209 | 0.5722 | 0.507 | 0.483 | 0.453 | 0.438 | 0.43
100 µM, coculture fibroblast: C12385 | 0.842 | 0.7118 | 0.69 | 0.611 | 0.559 | 0.529 | 0.502 | 0.495 | 0.486
100 µM, coculture fibroblast: H6013 | 0.8598 | 0.783 | 0.72 | 0.675 | 0.621 | 0.594 | 0.557 | 0.544 | 0.517
100 µM, coculture fibroblast: H6019 | 0.738 | 0.6524 | 0.614 | 0.515 | 0.469 | 0.442 | 0.416 | 0.403 | 0.385
100 µM, coculture fibroblast: H6076 | 0.943 | 0.842 | 0.764 | 0.723 | 0.65 | 0.617 | 0.587 | 0.564 | 0.551
100 µM, coculture fibroblast: H6231 | 0.879 | 0.76 | 0.702 | 0.675 | 0.6 | 0.577 | 0.5436 | 0.51968 | 0.5137
100 µM, coculture fibroblast: HADF | 0.88 | 0.831 | 0.758 | 0.693 | 0.64 | 0.605 | 0.561 | 0.542 | 0.513
100 µM, coculture fibroblast: HCFa | 0.811 | 0.767 | 0.714 | 0.665 | 0.612 | 0.595 | 0.563 | 0.549 | 0.523
100 µM, coculture fibroblast: HCPF | 0.913 | 0.811 | 0.777 | 0.739 | 0.679 | 0.652 | 0.641 | 0.6 | 0.579
100 µM, coculture fibroblast: HHSteC | 0.843 | 0.791 | 0.75 | 0.725 | 0.698 | 0.671 | 0.656 | 0.642 | 0.616
100 µM, coculture fibroblast: HMF | 0.922 | 0.83 | 0.787 | 0.755 | 0.695 | 0.666 | 0.624 | 0.589 | 0.568
100 µM, coculture fibroblast: HPFa | 0.90671 | 0.8025 | 0.733 | 0.674 | 0.639 | 0.614 | 0.567 | 0.551 | 0.512
100 µM, coculture fibroblast: HUF | 0.854 | 0.753 | 0.734 | 0.6371 | 0.5699 | 0.5382 | 0.50366 | 0.4912 | 0.4798
100 µM, coculture fibroblast: Hs27A | 0.881 | 0.789 | 0.758 | 0.719 | 0.675 | 0.659 | 0.631 | 0.626 | 0.589
100 µM, coculture fibroblast: Hs343T | 0.9157 | 0.791 | 0.748 | 0.715 | 0.642 | 0.598 | 0.562 | 0.532 | 0.509
100 µM, coculture fibroblast: WS1 | 0.7697 | 0.699 | 0.686 | 0.584 | 0.529 | 0.499 | 0.468 | 0.459 | 0.45
